These are yes or no findings as the source states them, for the method shown. Binding seen in cells or lysates may run through a third protein. A yes stands for co-enrichment or nearness to the bait. Other partners may have been found.
B1: Ywhab (14-3-3 family) (protein, UniProt Q9CQV8 1-246)
chain: MTMDKSELVQKAKLAEQAERYDDMAAAMKAVTEQGHELSNEERNLLSVAYKNVVGARRSSWRVISSIEQKTERNEKKQQMGKEYREKIEAELQDICNDVLELLDKYLILNATQAESKVFYLKMKGDYFRYLSEVASGENKQTTVSNSQQAYQEAFEISKKEMQPTHPIRLGLALNFSVFYYEILNSPEKACSLAKTAFDEAIAELDTLNEESYKDSTLIMQLLRDNLTLWTSENQGDEGDAGEGEN
B2: Ywhaq (14-3-3 family) (protein, UniProt P68254 1-245)
chain: MEKTELIQKAKLAEQAERYDDMATCMKAVTEQGAELSNEERNLLSVAYKNVVGGRRSAWRVISSIEQKTDTSDKKLQLIKDYREKVESELRSICTTVLELLDKYLIANATNPESKVFYLKMKGDYFRYLAEVACGDDRKQTIENSQGAYQEAFDISKKEMQPTHPIRLGLALNFSVFYYEILNNPELACTLAKTAFDEAIAELDTLNEDSYKDSTLIMQLLRDNLTLWTSDSAGEECDAAEGAEN
B3: Ywhag (14-3-3 family) (protein, UniProt P61982 1-247)
chain: MVDREQLVQKARLAEQAERYDDMAAAMKNVTELNEPLSNEERNLLSVAYKNVVGARRSSWRVISSIEQKTSADGNEKKIEMVRAYREKIEKELEAVCQDVLSLLDNYLIKNCSETQYESKVFYLKMKGDYYRYLAEVATGEKRATVVESSEKAYSEAHEISKEHMQPTHPIRLGLALNYSVFYYEIQNAPEQACHLAKTAFDDAIAELDTLNEDSYKDSTLIMQLLRDNLTLWTSDQQDDDGGEGNN

By UniProt entry, the sequences of proteins in these tests, tags left out.
UniProt Q8BLR2: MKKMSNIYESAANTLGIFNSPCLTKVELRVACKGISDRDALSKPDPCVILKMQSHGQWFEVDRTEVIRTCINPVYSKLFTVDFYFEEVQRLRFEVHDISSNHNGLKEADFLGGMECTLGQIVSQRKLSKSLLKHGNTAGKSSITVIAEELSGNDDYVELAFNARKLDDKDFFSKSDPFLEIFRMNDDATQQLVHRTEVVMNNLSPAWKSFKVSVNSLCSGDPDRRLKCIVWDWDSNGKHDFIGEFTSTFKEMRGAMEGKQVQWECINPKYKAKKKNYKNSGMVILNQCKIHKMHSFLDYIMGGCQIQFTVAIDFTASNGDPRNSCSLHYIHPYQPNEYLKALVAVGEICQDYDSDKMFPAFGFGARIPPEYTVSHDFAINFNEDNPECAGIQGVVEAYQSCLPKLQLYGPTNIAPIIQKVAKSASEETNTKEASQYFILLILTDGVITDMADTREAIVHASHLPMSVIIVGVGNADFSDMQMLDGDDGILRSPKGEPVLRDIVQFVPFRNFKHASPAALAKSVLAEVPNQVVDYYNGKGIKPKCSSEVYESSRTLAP
UniProt P63101: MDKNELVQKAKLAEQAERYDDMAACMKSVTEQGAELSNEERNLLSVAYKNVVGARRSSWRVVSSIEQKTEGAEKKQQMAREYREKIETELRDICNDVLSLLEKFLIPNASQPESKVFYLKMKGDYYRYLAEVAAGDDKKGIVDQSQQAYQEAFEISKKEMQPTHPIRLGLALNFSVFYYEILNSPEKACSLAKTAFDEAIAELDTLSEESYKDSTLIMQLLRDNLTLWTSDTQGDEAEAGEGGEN
UniProt P62259: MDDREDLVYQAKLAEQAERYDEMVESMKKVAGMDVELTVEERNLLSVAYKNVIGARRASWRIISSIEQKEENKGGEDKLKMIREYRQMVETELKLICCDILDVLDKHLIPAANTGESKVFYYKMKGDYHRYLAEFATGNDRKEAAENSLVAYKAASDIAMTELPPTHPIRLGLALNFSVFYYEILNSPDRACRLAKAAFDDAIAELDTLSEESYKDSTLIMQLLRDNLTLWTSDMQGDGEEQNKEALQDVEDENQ
UniProt P14873: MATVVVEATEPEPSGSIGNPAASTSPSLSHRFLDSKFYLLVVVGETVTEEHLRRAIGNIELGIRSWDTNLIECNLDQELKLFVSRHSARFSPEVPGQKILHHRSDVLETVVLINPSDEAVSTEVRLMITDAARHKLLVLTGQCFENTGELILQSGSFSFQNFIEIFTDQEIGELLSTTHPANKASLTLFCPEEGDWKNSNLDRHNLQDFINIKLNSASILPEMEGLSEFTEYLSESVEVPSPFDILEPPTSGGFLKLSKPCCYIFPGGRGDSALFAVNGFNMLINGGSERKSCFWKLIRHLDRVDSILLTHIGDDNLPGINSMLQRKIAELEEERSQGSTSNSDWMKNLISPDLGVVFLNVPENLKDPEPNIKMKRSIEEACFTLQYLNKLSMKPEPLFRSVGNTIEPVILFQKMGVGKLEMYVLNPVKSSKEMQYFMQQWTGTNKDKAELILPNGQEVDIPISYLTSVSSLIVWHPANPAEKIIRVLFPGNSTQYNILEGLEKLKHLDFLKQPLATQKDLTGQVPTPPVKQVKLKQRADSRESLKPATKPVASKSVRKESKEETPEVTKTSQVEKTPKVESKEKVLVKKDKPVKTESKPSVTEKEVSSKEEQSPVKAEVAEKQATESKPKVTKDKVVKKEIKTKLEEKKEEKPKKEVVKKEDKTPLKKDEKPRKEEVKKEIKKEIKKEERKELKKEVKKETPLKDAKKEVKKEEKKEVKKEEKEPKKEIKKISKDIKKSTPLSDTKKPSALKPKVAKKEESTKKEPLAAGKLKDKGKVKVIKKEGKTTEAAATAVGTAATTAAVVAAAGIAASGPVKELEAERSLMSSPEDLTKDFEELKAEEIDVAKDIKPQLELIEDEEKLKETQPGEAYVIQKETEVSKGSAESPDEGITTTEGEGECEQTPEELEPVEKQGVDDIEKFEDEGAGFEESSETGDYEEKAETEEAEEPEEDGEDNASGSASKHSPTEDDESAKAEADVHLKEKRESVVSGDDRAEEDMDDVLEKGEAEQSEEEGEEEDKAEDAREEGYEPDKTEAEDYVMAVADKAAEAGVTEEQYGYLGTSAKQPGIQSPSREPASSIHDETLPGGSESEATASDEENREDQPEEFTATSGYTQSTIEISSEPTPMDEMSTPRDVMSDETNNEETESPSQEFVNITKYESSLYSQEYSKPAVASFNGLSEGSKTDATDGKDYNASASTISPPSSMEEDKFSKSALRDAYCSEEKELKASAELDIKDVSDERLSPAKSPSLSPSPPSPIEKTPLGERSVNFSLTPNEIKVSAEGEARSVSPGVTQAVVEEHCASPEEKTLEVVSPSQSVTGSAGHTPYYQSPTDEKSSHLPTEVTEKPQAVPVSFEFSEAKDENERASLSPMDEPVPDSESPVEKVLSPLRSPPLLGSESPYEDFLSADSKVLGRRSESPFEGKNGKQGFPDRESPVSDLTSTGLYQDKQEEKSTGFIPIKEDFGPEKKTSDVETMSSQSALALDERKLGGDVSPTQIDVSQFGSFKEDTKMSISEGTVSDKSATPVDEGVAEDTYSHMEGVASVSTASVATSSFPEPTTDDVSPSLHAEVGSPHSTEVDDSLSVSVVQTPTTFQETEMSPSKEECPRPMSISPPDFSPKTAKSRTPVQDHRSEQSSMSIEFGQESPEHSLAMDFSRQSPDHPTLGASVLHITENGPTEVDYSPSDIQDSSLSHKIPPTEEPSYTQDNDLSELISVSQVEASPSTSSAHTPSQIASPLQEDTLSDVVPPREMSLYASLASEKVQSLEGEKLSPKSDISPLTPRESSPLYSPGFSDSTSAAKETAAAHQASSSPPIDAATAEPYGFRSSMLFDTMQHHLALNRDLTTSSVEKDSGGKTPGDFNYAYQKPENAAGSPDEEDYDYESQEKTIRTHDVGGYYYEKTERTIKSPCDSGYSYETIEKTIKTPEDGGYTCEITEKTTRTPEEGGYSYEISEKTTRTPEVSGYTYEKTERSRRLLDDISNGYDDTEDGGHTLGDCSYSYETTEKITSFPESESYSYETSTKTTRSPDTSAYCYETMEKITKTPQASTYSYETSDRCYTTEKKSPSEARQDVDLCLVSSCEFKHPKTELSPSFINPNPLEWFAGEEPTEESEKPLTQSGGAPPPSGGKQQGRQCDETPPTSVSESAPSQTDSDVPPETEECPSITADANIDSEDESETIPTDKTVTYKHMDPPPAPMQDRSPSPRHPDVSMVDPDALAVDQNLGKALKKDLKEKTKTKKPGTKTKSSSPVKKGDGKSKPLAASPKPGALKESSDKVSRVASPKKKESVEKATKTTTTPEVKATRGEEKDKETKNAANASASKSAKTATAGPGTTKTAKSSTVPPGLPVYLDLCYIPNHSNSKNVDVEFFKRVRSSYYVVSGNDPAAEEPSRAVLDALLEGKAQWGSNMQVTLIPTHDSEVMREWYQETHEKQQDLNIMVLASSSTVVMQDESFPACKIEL
UniProt Q9JIS5: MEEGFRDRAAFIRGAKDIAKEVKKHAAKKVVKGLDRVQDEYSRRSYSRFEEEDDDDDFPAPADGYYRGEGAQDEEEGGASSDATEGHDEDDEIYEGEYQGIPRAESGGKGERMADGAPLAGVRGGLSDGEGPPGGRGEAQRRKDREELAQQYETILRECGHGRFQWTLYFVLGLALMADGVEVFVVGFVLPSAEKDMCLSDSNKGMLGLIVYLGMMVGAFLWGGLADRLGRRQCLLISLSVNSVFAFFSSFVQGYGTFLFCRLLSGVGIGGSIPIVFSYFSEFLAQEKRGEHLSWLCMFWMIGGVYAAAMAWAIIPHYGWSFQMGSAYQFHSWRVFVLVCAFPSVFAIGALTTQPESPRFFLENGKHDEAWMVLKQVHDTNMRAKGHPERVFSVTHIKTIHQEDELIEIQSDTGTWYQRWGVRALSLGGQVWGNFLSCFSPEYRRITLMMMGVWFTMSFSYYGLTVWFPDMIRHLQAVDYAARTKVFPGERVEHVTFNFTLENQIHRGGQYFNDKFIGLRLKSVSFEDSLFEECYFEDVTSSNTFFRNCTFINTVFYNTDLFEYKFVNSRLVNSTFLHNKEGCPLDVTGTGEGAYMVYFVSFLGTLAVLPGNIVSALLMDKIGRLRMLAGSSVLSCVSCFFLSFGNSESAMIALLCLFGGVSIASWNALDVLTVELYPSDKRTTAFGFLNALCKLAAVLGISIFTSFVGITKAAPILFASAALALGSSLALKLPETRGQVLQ

Molecular target: GST-Cpne4 (UniProt Q8BLR2)
Assay: affinity purification with mass spectrometry

binding, binds:
Ywhaz (14-3-3 family) (from UniProt P63101 1-245)
14-3-3Ɛ (from UniProt P62259 1-255)
Map1b (from UniProt P14873 1-2464)
SV2a (from UniProt Q9JIS5 1-742)
B1
B2
B3

— publication doi:10.1101/2021.08.09.455730
